Assay [1] deals with OsE2F2 (367), bait fragment not printed for this prey (Oryza sativa). The experiment in a line: Y2H; input trait library.
Assay [2] deals with T1, OsCS aa 316-583 (Oryza sativa) (UniProt A2Y0X2).
T1 sequence: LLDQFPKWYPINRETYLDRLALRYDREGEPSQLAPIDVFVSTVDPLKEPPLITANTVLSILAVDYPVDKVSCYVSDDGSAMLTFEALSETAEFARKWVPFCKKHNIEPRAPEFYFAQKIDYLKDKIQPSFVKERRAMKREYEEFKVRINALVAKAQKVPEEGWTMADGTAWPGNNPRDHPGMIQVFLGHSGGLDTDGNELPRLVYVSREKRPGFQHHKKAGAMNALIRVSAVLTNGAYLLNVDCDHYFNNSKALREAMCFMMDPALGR
The experiment in a line: Y2H; output trait library.

The chains behind the UniProt entries cited, without tags or fusion partners. Where a name states a change or a piece, a line headed by the entry shows the natural chain unless it says otherwise.
UniProt A2YH60: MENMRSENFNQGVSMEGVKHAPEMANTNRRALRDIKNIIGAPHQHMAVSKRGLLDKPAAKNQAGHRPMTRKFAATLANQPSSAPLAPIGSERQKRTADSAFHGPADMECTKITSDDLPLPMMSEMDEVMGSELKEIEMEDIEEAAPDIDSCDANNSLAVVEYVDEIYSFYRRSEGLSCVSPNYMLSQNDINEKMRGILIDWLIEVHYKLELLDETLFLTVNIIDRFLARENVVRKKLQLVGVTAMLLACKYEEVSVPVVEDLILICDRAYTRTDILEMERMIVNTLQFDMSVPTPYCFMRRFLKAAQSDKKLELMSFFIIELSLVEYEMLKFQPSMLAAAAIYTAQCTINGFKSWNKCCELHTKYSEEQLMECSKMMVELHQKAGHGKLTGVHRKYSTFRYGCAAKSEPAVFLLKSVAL

The target of assay [3] is T2, OsSGT1 aa 200-368 (Oryza sativa) (UniProt Q0JL44).
T2 sequence: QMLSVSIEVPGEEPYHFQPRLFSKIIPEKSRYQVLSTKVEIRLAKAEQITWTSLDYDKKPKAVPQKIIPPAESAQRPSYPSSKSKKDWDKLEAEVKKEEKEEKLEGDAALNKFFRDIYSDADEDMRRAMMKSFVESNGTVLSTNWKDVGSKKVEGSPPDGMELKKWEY
The experiment in a line: Y2H; output trait library.

Assay [4] addresses T3, OsCYCOS2 aa 50-233 (Oryza sativa) (UniProt A2YH60).
T3 sequence: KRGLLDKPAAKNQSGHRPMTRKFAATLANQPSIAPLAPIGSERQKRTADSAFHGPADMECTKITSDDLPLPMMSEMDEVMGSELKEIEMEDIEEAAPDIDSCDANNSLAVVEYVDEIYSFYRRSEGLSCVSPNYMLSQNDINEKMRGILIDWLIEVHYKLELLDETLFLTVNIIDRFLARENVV
The experiment in a line: Y2H; output trait library.

The target of assay [5] is T3, OsCYCOS2 aa 50-233 (Oryza sativa). The experiment in a line: Y2H; input trait library.
The target in assay [6] is T4, Os018049-3655 aa 1-148 (Oryza sativa).
T4 sequence: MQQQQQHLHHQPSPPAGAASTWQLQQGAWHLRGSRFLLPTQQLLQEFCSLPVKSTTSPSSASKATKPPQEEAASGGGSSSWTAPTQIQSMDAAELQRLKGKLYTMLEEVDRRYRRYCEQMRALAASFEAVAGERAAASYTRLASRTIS
The experiment in a line: Y2H; output trait library.

Assay [7] has as its target T5, Os006819-2510 aa 1-273 (Oryza sativa).
T5 sequence: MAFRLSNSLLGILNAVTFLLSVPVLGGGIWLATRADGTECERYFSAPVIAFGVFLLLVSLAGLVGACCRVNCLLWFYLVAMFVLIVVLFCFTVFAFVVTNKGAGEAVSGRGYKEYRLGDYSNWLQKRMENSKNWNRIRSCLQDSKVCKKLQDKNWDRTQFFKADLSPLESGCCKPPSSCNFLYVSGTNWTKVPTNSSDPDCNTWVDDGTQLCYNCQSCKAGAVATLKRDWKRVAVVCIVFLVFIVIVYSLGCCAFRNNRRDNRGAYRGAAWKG
The experiment in a line: Y2H; output trait library.

Assay [8] deals with T6, Os006819-2510 aa 1-150 (Oryza sativa).
T6 sequence: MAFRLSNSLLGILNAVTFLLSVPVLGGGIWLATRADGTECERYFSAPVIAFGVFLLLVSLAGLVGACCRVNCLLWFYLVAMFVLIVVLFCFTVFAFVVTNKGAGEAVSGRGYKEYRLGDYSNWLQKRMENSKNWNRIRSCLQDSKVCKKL
The experiment in a line: Y2H; input trait library.

This note sets out measurements from patent US20060253917A1.

These are yes or no findings as the source states them, for the method shown. Some results given as binding are weak or reduced against the parent protein; the word gives no strength.

B1: OsPN31182 aa 124-324 (protein)
chain: GLRQFSMKVCEKVESKGRTTYNEVADELVAEFADPNNSILPPDPDNPNAQQYDEKNIRRRVYDALNVLMAMEIISKDKKEIQWKGLPRTSINDIEDLQTELVGLKSRIEKKNTYLQELQDQFVGMQKLIQRNEQLYGSGNIPSGGVALPFILVQTRPHATVEVEISEDMQLVHFDFNSTPFELHDDSFVLKAMSSCGEEQI
In the case of B1, in assay [1], the binding result is given as “binds”.

B2: OsPN29119 prey clone -53 to 155 (protein)
chain: MEFEADGARWPEPRGDAAGAPPLERGDAPSPRFDSSRALRLLRELGSNVTEDLVVLMPNLLSFLKHDDPVVVNQSIASGTNLFAAVLEEMTLQINKCGRVDAWLEEMWAWTKQFKDAVHNLIHESVPVATKLFAVKFIETWILCFAPQSKSDRMQ
Take B2: in assay [2], the binding entry was “binds”.

B3: PN23914 aa 1-263 (protein)
chain: MEGGGEVGWYVLGPNQEHVGPYALSELREHFANGYISESSMLWAEGRSEWMPLSSIPDLLAVVTKKDQPDEGIEDDFDKFQKEVIEAEAEVEASTDKAADNDINQEHGADDPDDRPATPPDGEDEFTDDDGTVYKWDRVLRAWVPQDDLEGKNDNYEVEDMTFAHEEEVFQAPDIAGSTTLEENNVSAEIEIKEPPKVEKRAHKKRKSSEKPADKKEAYKPPDSWVDLKVNTHVYVTGLPDDVTAEEIVEVFSKCGIIKEDPE
For B3, the binding result in assay [3] is “binds”.

B4: OsPN31182 aa 156-334 (protein)
chain: ADPNNSILPPDPDNPNAQQYDEKNIRRRVYDALNVLMAMEIISKDKKEIQWKGLPRTSINDIEDLQTELVGLKSRIEKKNTYLQELQDQFVGMQKLIQRNEQLYGSGNIPSGGVALPFILVQTRPHATVEVEISEDMQLVHFDFNSTPFELHDDSFVLKAMSSCGEEQIDGIHDLISNG
B4: the binding result in assay [1] was “binds”.

B5: PN30899 aa 4-228 (protein)
chain: DSLKRKTYDDELRREELLNYFRRFQSASQKKGGSGIFRQGFSPSEGVDEGPYGLSRRIACKKCGDFHLWIYTGRAKSQARWCQDCNDFHQAKDGDGWVEQSFQPVLFGLLHKPELPHAYVCAESIIFDVTEWFTCQGMRCPANTHKPSFHVNASLLKQNSGKGSTSAQRGGGIPNGVNMDGGIDEEEFFEWLQNALQSGMFESFGAQNEPPSPGSGSNAKGSNSS
As to B5, in assay [4], the binding result is listed as “binds”.

B6: OsPN26688 aa 132-225 (protein)
chain: PFFDYIQREIAQIKFSITRTAEMEDRLIELEAMQKVLLEGVEAYDKLQNDLVSAKERLTKILQSSDKKSTLLEMVERNELNMSILTLLDENIAS
Regarding B6, the binding result in assay [5] is reported as “binds”.

B7: OsPN23830 aa 89-250 (protein)
chain: LASQTYDLVDAHIQQLDQFMRKLEELRQEKEAATTAAAAAAAAAASVATGTPVAATVTASAGTSTADNTPKGGRSSERGRGGRKKTAKVPTEQPAPAIDLELPVDPNEPTYCLCNQVSYGEMVACDNNDCKIEWYHFGCVGVKEHPKGKWYCPSCIGFQKKR
For B7, in assay [6], the binding entry is recorded as “binds”.

B8: PN23363 aa 50-148 (protein)
chain: EEEVAAASAETEEHVQRILLAIDAFTRQVSEMLEAGRALFKNLAADFEDRLCSIHKERVERWEEEIRELRARDAANEQARSLLHNAQLHLLATVRHDHT
For the molecule B8, the binding entry in assay [5] is recorded as “binds”.

B9: OsRAB16B aa 147-164 (peptide)
chain: GEKKGFMDKIKEKLPGQH
In the case of B9, in assay [7], the binding entry is “binds”.

B10: OsLIP5 aa 29-60 (peptide)
chain: GEHHKKDGEHKEGVVEKIKDKITGDHGDGGEH
For B10, in assay [8], the binding entry was “binds”.

B11: OsCRTC aa 283-301 (peptide)
chain: KGPWKQKKIKNPNYQGKWK
As to B11, the binding entry in assay [7] is listed as “binds”.

B12: OsPN31182 aa 72-255 (protein)
chain: GAAAASTPISENTFLRLNDLDIHGDDAPSSQAPTSKKKKRGARAVGPDKGGRGLRQFSMKVCEKVESKGRTTYNEVADELVAEFADPNNSILPPDPDNPNAQQYDEKNIRRRVYDALNVLMAMEIISKDKKEIQWKGLPRTSINDIEDLQTELVGLKSRIEKKNTYLQELQDQFVGMQKLIQRN
On to B12, for which, in assay [1], the binding entry was “binds”.
